Results are given in words; binding and its absence hold for the method and conditions named. Binding seen in cells or lysates may run through a third protein. Some binding calls cover weakened binding; strength is not graded here.
Molecular target: NFκB p65 (rat (endogenous in RASMCs)) (UniProt Q7TQN4)
Assay: co-IP; IP with anti-NFκB p65 (Abcam) from 600 µg RASMC lysate on protein A/G-plus beads, overnight at 4°C, immunoblot for IκBα; Co-IP buffer 120 mM NaCl, 20 mM Tris pH 7.5, 2 mM EDTA, 1% Triton-X100, 1 mM sodium vanadate, 10% glycerol; cells pretreated with GlcN (5 mM), PUGNAc (10^-4 M) or vehicle for 1 hr, then TNF-α (10 ng/mL) or vehicle for 1 hr

Sequences of proteins named here, by UniProt entry; tags and fusion partners are left off.
UniProt Q7TQN4: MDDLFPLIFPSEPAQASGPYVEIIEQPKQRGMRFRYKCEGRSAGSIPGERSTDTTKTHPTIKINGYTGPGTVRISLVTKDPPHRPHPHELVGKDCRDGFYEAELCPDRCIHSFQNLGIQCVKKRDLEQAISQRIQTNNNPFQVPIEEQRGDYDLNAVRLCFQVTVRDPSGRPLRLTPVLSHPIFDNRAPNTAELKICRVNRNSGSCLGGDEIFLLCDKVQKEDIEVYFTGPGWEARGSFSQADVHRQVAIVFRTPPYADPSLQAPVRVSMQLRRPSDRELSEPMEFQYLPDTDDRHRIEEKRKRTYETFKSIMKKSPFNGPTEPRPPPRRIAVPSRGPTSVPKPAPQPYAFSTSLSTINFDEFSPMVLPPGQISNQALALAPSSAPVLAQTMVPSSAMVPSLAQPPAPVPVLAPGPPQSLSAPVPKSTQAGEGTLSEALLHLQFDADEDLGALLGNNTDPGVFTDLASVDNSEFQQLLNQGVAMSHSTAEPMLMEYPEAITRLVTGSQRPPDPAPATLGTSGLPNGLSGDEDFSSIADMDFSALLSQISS
UniProt Q63746: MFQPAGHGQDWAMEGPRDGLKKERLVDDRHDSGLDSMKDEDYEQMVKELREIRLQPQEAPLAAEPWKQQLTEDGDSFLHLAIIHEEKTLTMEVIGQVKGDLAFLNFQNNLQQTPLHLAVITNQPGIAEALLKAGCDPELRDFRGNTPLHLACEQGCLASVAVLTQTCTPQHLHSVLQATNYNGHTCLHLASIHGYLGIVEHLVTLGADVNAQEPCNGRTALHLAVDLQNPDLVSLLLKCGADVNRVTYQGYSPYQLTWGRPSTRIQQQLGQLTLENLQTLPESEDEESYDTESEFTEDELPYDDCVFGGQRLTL

binding: binds
Substance: IκBα (from UniProt Q63746 1-314)

Source: PMC3164132
